A short description of one data set: in vitro. To be noted: human, Relative Viability (%).
The test system of another data set is U937 cells. To be noted: 20 µM.

Where a name gives a salt, the structure may show the parent alone.

The record followed here is publication PMC12069340 (Frontiers in Cellular and Infection Microbiology, 2025).

On to `COc1cc2c(cc1OC)C(=O)C(CC1CCN(Cc3ccccc3)CC1)C2` (centres unmarked) [Donepezil HCl], for which the viability (in general, a read-out of living cells in per cent, often relative to untreated cells) at 20 µM in “in vitro” is 99%.
For `CN1c2ccccc2C(NCCCCCCC(=O)[O-])c2ccc(Cl)cc2S1(=O)=O.[Na+]` (centres unmarked) [Tianeptine sodium], the “Relative Viability (%)” value in the data set on U937 cells came out at 120.3.
